We go through 2 substances from PMC4585710.

Sequences of proteins named here, by UniProt entry; tags and fusion partners are left off. A change or cut given only in a name is not applied to a line headed by its entry. Residues count along the entry.
UniProt P14211, residues 18-416: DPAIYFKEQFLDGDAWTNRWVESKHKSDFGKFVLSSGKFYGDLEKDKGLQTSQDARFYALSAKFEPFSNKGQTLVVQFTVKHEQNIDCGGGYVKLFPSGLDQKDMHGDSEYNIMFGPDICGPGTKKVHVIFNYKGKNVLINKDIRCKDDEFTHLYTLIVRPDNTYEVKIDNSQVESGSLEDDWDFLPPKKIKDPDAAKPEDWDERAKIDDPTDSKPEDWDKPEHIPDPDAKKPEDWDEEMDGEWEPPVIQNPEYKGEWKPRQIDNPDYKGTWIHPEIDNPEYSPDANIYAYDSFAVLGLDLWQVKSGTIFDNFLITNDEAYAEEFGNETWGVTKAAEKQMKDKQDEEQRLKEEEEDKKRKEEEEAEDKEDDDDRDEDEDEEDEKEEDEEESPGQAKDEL
UniProt Q9Z0L4: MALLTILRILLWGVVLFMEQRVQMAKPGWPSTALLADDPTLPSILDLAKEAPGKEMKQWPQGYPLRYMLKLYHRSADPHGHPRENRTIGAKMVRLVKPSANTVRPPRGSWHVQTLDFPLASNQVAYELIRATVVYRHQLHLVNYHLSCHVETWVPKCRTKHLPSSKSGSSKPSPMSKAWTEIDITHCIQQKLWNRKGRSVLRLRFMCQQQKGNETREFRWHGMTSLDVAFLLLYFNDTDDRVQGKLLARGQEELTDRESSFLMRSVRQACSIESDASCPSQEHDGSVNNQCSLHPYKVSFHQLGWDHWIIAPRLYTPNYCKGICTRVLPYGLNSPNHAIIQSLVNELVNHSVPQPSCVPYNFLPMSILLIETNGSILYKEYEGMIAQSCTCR
UniProt Q07105: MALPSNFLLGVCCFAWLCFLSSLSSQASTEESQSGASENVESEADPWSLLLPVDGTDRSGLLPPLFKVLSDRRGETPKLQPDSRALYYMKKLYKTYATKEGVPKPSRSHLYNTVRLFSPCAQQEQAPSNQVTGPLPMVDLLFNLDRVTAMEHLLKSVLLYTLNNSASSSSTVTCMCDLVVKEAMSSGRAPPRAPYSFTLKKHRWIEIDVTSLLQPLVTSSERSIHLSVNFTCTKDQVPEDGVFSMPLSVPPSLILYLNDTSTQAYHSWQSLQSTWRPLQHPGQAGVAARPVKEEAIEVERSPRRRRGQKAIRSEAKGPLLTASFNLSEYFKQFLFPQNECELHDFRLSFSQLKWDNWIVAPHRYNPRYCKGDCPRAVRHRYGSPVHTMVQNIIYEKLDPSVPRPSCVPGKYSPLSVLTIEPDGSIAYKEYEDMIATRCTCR

No constants are given. Whether binding was seen depends on the method and setting. In cells and extracts the contact can be indirect. Binding calls can cover weak binding; strength is not graded here.

This assay has as its target calreticulin (CALR) (mouse (endogenous in MEF)) (UniProt P14211). The assay is described as follows: co-IP; immunoprecipitation with anti-CALR antibody from cell lysates (50 ug) of Calr+/+ or Calr-/- MEFs expressing Flag/His tagged GDF9 or BMP15; immunoprecipitates probed with anti-His antibody on immunoblots.

With “mouse BMP15 tagged with Flag/Hisx6 at the C-terminus (from UniProt Q9Z0L4)”, the binding entry was “binds”.

For “mouse GDF9 tagged with Flag/Hisx6 at the C-terminus (from UniProt Q07105)”, the binding entry is “binds”.
